Laboratory results: PubChem BioAssay AID1259405 (NCATS, 2018)
In all, the deposit lists about 50,000 reagents; shown is an unselected part. About 4,000 of all reagents (8%) were called active. 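Mouse siRNA library applied to hamster cells; one well for each siRNA.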 A number with no mark means an inactive call. The numbers tell different reagents against one gene apart. Reagent sequences are not shown.

Test: 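Mouse-designed siRNAs used to find CHO productivity engineering targets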 (primary screen)
System: Chinese hamster CHO-K1 ovary cells with stable secreted eGFP expression
Knock-down reagent: single siRNA against mouse genes, 0.8 pmol siRNA per well (2 µl of 400 nM stock)
Timing: 3 days
Detection: 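Percent of the per-plate non-targeting control median for intracellular GFP per well by laser scanning cytometry and for cell viability by ATP luminescence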
Scale: GFP, % of control: higher = more GFP per well, higher productivity; viability (ATP), % of control: higher = more viable cells (more ATP)
Active means: 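Called active when intracellular GFP, relative to negative control, is at or above 120%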

gene knocked down | siRNA no. | GFP, % of control | viability (ATP), % of control
Eif3e (eukaryotic translation initiation factor 3, subunit E) | 1 | 89.8 | 80.3
Eif3e (eukaryotic translation initiation factor 3, subunit E) | 2 | 53.3 | 41.2
Eif3e (eukaryotic translation initiation factor 3, subunit E) | 3 | 69.8 | 73.6
Ap2m1 (adaptor-related protein complex 2, mu 1 subunit) | 1 | 72.2 | 51.1
Ap2m1 (adaptor-related protein complex 2, mu 1 subunit) | 2 | 106 | 108
Ap2m1 (adaptor-related protein complex 2, mu 1 subunit) | 3 | 44.2 | 31.3
Oasl2 (2'-5' oligoadenylate synthetase-like 2) | 1 | 127 (active) | 63.9
Oasl2 (2'-5' oligoadenylate synthetase-like 2) | 2 | 73.3 | 56.7
Oasl2 (2'-5' oligoadenylate synthetase-like 2) | 3 | 49.2 | 60.2
Or7g28 (olfactory receptor family 7 subfamily G member 28) | 1 | 78.4 | 75.6
Or7g28 (olfactory receptor family 7 subfamily G member 28) | 2 | 66.8 | 53.8
Or7g28 (olfactory receptor family 7 subfamily G member 28) | 3 | 67.4 | 77.7
Edc4 (enhancer of mRNA decapping 4) | 1 | 77.1 | 56.6
Edc4 (enhancer of mRNA decapping 4) | 2 | 77.3 | 88.2
Edc4 (enhancer of mRNA decapping 4) | 3 | 76.4 | 88
Adam11 (a disintegrin and metallopeptidase domain 11) | 1 | 144 (active) | 106
Adam11 (a disintegrin and metallopeptidase domain 11) | 2 | 71.9 | 75.9
Adam11 (a disintegrin and metallopeptidase domain 11) | 3 | 119 | 94.8
Gmnn (geminin) | 1 | 72.8 | 75.7
Gmnn (geminin) | 2 | 53.4 | 75.3
Gmnn (geminin) | 3 | 124 (active) | 86.1
Tcp11l1 (t-complex 11 like 1) | 1 | 50.5 | 89
Tcp11l1 (t-complex 11 like 1) | 2 | 66.7 | 87.6
Tcp11l1 (t-complex 11 like 1) | 3 | 150 (active) | 111
Map3k9 (mitogen-activated protein kinase kinase kinase 9) | 1 | 97.4 | 85.5
Map3k9 (mitogen-activated protein kinase kinase kinase 9) | 2 | 61.7 | 64.1
Map3k9 (mitogen-activated protein kinase kinase kinase 9) | 3 | 90.9 | 90.6
Zfp740 (zinc finger protein 740) | 1 | 71.9 | 90.6
Zfp740 (zinc finger protein 740) | 2 | 78.1 | 86.7
Zfp740 (zinc finger protein 740) | 3 | 39.6 | 37.3
Ubald2 (UBA-like domain containing 2) | 1 | 52.1 | 76.8
Ubald2 (UBA-like domain containing 2) | 2 | 104 | 77.5
Ubald2 (UBA-like domain containing 2) | 3 | 97.4 | 68.4
Rad9b (RAD9 checkpoint clamp component B) | 1 | 46 | 47.1
Rad9b (RAD9 checkpoint clamp component B) | 2 | 48.5 | 61.6
Rad9b (RAD9 checkpoint clamp component B) | 3 | 71.6 | 97.7
Rad9b (RAD9 checkpoint clamp component B) | 4 | 55.3 | 29.9
Rad9b (RAD9 checkpoint clamp component B) | 5 | 63.6 | 45.6
Rad9b (RAD9 checkpoint clamp component B) | 6 | 60.9 | 87.2
Cyp2e1 (cytochrome P450, family 2, subfamily e, polypeptide 1) | 1 | 84.3 | 90.2
Cyp2e1 (cytochrome P450, family 2, subfamily e, polypeptide 1) | 2 | 68 | 59.7
Cyp2e1 (cytochrome P450, family 2, subfamily e, polypeptide 1) | 3 | 69 | 83.3
Esrra (estrogen related receptor, alpha) | 1 | 66.6 | 63.8
Esrra (estrogen related receptor, alpha) | 2 | 75.8 | 70.3
Zc4h2 (zinc finger, C4H2 domain containing) | 1 | 49.5 | 56
Zc4h2 (zinc finger, C4H2 domain containing) | 2 | 76.6 | 65.9
Zc4h2 (zinc finger, C4H2 domain containing) | 3 | 86.3 | 78.9
Prmt7 (protein arginine N-methyltransferase 7) | 1 | 190 (active) | 83.7
Prmt7 (protein arginine N-methyltransferase 7) | 2 | 109 | 146
Prmt7 (protein arginine N-methyltransferase 7) | 3 | 60 | 81.5
Smad6 (SMAD family member 6) | 1 | 59.6 | 65
Smad6 (SMAD family member 6) | 2 | 73.3 | 61.6
Smad6 (SMAD family member 6) | 3 | 80.2 | 102
Wbp2 (WW domain binding protein 2) | 1 | 79.4 | 50.5
Wbp2 (WW domain binding protein 2) | 2 | 70.9 | 75.8
Wbp2 (WW domain binding protein 2) | 3 | 75.7 | 78.4
Dhx32 (DEAH-box helicase 32 (putative)) | 1 | 125 (active) | 95.3
Dhx32 (DEAH-box helicase 32 (putative)) | 2 | 131 (active) | 136
Dhx32 (DEAH-box helicase 32 (putative)) | 3 | 121 (active) | 93
Spag6 (sperm associated antigen 6) | 1 | 87.2 | 64.8
Spag6 (sperm associated antigen 6) | 2 | 69.4 | 90.2
Spag6 (sperm associated antigen 6) | 3 | 131 (active) | 124
Bhlhe40 (basic helix-loop-helix family, member e40) | 1 | 58.9 | 62.8
Bhlhe40 (basic helix-loop-helix family, member e40) | 2 | 99.1 | 75.9
Klhl30 (kelch-like 30) | 1 | 78.1 | 53.9
Klhl30 (kelch-like 30) | 2 | 38.8 | 49.8
Klhl30 (kelch-like 30) | 3 | 82.7 | 101
Mxd3 (Max dimerization protein 3) | 1 | 67.5 | 44.2
Mxd3 (Max dimerization protein 3) | 2 | 79.1 | 80.4
Mxd3 (Max dimerization protein 3) | 3 | 85.5 | 104
H2-M10.3 (histocompatibility 2, M region locus 10.3) | 1 | 70.1 | 69.3
H2-M10.3 (histocompatibility 2, M region locus 10.3) | 2 | 45.8 | 79.8
H2-M10.3 (histocompatibility 2, M region locus 10.3) | 3 | 70.8 | 88.8
Irx1 (Iroquois homeobox 1) | 1 | 93.3 | 80.9
Irx1 (Iroquois homeobox 1) | 2 | 98.6 | 67.1
Irx1 (Iroquois homeobox 1) | 3 | 87.1 | 90.5
Pcdhb22 (protocadherin beta 22) | 1 | 82.1 | 81
Pcdhb22 (protocadherin beta 22) | 2 | 109 | 68.3
Rab3c (RAB3C, member RAS oncogene family) | 1 | 49.2 | 58.9
Rab3c (RAB3C, member RAS oncogene family) | 2 | 65.1 | 59.5
Or5b124 (olfactory receptor family 5 subfamily B member 124) | 1 | 94.4 | 63.9
Or5b124 (olfactory receptor family 5 subfamily B member 124) | 2 | 93.1 | 89.3
Or5b124 (olfactory receptor family 5 subfamily B member 124) | 3 | 111 | 127
Tgm5 (transglutaminase 5) | 1 | 146 (active) | 109
Tgm5 (transglutaminase 5) | 2 | 62.5 | 89.5
Tgm5 (transglutaminase 5) | 3 | 43 | 66.8
